In the supplement of paper PMC10849652:
The list shows a part of the results.

Chains of the proteins cited; added tags and fusions are not shown. Lines headed by an entry give the natural chain unless they say otherwise; changes in a name come on top.
UniProt Q9UGJ0: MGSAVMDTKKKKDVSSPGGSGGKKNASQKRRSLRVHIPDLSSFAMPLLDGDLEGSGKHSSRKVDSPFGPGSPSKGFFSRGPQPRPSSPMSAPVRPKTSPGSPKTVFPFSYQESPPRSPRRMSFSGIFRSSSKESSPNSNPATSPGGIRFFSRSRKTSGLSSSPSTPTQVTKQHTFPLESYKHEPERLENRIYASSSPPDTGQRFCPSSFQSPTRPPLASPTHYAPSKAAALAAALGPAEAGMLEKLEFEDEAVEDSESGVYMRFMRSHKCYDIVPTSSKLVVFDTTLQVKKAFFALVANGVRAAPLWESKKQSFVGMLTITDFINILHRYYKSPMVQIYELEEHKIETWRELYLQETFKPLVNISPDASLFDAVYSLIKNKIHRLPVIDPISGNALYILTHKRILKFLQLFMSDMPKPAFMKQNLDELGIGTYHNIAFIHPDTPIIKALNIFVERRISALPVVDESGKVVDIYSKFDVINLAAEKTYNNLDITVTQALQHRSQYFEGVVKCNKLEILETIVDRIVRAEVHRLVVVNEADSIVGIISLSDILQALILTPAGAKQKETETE
UniProt Q6NUP7: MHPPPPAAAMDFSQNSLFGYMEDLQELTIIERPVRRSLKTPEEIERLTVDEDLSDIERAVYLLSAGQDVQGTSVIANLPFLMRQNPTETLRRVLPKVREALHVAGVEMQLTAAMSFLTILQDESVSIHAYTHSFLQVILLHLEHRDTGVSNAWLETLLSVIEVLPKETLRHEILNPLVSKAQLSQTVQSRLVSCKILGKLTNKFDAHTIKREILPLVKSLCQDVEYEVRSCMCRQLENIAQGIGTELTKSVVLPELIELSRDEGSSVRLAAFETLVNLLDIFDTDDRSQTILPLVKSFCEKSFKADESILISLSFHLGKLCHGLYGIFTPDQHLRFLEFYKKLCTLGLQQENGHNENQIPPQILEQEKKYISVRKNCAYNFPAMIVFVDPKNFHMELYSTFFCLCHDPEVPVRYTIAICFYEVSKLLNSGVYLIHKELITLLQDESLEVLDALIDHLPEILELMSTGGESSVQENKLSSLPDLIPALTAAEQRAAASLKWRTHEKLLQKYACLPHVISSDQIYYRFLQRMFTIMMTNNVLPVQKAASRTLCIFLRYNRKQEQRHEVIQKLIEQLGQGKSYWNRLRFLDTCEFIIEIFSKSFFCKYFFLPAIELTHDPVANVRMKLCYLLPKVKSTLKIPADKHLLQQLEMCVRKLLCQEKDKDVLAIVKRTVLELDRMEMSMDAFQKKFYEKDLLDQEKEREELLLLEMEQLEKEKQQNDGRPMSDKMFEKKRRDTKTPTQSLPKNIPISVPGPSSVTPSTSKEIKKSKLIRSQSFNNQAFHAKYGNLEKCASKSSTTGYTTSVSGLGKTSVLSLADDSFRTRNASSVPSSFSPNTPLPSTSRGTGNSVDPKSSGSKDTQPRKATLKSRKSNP
UniProt Q5H9R7: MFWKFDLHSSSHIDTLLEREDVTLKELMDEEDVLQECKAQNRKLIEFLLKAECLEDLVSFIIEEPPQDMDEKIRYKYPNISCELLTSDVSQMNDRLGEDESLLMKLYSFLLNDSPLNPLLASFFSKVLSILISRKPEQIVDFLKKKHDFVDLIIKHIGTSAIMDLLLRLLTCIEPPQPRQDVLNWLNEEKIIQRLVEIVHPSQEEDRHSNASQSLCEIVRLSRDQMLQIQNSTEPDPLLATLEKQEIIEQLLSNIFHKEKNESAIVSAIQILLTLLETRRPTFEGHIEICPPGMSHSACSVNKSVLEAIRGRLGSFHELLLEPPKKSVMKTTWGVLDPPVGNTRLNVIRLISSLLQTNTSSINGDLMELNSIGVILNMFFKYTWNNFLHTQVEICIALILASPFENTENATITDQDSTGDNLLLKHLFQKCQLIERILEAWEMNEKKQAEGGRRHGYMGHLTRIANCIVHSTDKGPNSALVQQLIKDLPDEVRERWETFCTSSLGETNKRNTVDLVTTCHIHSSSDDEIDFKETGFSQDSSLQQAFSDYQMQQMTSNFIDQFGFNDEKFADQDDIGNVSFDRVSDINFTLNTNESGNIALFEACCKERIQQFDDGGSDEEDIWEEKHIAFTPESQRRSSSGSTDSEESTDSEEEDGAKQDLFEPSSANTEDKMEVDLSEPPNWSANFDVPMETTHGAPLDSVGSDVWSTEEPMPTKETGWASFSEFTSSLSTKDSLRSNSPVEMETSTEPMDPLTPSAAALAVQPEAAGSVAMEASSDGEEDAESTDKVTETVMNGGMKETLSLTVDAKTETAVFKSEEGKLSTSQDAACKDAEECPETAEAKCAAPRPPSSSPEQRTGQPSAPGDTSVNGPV
UniProt O94906: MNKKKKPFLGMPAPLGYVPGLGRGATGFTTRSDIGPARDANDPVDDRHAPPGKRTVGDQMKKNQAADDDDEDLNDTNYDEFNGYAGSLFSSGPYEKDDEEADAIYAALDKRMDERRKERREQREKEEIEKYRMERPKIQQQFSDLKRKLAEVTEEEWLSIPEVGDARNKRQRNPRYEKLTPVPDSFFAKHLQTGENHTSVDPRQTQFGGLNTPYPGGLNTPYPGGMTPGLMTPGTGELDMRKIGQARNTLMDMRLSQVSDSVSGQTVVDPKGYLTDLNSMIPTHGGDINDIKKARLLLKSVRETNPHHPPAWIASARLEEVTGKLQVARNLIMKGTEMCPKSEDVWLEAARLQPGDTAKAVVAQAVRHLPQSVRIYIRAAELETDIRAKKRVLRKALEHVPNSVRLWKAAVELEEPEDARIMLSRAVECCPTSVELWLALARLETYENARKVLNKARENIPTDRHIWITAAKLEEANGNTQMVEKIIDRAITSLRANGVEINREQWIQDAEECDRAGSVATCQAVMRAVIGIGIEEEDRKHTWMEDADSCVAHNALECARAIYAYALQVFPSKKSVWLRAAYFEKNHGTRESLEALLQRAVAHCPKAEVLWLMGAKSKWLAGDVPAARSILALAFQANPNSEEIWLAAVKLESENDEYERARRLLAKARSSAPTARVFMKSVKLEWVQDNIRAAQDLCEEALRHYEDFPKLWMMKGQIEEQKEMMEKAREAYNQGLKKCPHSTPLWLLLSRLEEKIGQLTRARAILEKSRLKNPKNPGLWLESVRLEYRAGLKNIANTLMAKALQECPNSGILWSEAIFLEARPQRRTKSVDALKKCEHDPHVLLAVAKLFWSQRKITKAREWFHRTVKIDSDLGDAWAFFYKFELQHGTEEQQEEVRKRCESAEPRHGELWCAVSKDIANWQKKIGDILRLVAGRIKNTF
UniProt Q99873, whole entry, looked up: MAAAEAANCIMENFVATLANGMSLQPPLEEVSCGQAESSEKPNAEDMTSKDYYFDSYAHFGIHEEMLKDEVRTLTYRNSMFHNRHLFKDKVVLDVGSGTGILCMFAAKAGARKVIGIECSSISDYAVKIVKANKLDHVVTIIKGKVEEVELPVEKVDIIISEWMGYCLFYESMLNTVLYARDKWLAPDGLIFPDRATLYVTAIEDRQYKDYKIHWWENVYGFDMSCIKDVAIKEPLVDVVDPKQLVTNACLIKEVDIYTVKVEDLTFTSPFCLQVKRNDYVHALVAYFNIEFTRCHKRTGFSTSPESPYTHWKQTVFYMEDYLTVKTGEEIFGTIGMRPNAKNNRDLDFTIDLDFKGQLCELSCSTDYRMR
UniProt O75170: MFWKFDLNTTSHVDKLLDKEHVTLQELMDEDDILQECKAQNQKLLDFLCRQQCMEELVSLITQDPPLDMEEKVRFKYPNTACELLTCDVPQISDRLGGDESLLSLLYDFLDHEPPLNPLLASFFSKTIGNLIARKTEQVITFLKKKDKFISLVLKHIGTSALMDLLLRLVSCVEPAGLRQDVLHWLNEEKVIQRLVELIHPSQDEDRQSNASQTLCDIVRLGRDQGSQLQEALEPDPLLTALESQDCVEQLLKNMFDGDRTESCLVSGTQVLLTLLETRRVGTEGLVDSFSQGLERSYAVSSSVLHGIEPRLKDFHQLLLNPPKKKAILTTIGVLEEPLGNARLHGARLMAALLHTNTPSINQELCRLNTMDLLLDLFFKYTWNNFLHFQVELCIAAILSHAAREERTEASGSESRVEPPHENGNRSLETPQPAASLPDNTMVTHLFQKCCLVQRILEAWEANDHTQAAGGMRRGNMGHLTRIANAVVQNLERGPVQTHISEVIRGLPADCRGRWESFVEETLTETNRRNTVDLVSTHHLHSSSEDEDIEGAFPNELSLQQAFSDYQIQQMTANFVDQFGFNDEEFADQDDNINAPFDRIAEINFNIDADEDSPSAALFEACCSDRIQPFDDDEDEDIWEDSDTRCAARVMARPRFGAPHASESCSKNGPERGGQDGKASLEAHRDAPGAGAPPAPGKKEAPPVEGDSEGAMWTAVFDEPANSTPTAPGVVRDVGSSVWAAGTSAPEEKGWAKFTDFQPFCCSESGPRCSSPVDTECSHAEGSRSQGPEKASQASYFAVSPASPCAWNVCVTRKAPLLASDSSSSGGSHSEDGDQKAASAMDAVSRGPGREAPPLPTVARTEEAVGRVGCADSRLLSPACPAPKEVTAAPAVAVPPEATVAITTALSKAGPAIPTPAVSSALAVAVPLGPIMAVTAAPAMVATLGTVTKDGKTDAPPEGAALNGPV
UniProt Q92733: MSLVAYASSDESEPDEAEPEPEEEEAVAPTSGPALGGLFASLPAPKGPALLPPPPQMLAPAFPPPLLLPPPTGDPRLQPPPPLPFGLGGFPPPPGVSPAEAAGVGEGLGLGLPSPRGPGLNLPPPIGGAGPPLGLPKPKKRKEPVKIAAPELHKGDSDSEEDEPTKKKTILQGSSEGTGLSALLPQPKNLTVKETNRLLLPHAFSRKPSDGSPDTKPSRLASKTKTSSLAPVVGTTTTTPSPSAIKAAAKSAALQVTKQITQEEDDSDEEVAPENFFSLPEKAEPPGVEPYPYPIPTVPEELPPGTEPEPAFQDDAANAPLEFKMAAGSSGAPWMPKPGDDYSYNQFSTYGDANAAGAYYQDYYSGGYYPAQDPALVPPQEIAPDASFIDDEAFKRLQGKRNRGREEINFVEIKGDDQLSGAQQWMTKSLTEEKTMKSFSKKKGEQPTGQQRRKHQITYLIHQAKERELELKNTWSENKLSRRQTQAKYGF
UniProt Q96LW4: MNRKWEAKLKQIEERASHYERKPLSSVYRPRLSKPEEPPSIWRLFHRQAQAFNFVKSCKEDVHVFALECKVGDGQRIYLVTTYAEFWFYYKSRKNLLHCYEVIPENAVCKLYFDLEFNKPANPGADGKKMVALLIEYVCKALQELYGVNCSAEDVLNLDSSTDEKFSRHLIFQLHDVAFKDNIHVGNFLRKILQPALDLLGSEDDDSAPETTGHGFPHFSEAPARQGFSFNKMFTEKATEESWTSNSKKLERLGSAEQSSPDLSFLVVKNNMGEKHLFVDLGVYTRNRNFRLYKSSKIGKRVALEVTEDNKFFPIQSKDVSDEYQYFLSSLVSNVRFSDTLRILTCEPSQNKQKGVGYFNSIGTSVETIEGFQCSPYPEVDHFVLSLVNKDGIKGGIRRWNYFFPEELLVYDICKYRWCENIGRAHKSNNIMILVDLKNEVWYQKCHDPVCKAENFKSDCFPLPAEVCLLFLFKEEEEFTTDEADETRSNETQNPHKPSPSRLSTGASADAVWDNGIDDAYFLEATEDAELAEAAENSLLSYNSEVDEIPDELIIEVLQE
UniProt Q96C90: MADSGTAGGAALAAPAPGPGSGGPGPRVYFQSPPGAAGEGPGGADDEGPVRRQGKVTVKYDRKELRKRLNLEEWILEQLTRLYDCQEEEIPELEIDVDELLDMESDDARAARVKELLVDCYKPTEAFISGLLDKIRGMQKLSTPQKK

Experiments:
Test in all cases: log2 fold change, soluble protein after heating vs DMSO (PISA); higher = thermal stabilisation; K562 lysate, 10 uM; active = over 0.2 and 3.5 SD of the protein, either way, in both replicates (recomputed)
[1] = compound: C1=CC=C(C=C1)[C@H](COC2=CC3=C(C=C2)NC(=O)N3)NC(=O)C4=CC=CN(C4=O)CC5=CC(=C(C=C5)F)F
Outline: (§1)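 Soluble protein was defined as the supernatant remaining after 21,000xg for 90 min, following pooling of heated aliquots and adjustment to 0.5% NP-40 at 4°C. Before that, crude K562 extract at 1 mg/mL protein in PBS pH 7.4 with 1 mM MgCl2 was treated with 10 μM compound for 30 min and heated for 3 min across 48°C-58°C. Quantification used TMTpro 16plex LC-MS/MS with channel sums equalised, and values are log-two fold changes in thermal stability relative to solvent controls from duplicates.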

[2] = compound: CC1=C(SC2=C1C(=N[C@H](C3=NN=C(N32)C)CC(=O)N)C4=CC=C(C=C4)Cl)C
Outline: as §1

[3] = compound: CC1=C2C(=CC=C1)N=C(N(C2=O)C3=CC=CC=C3C)CN4C=NC5=C(N=CN=C54)N
Outline: as §1

[4] = compound: Cc1sc2c(c1C)C(c1ccc(Cl)cc1)=N[C@@H](CC(=O)OC(C)(C)C)c1nnc(C)n1-2
Outline: as §1

[5] = compound: c1ccc([C@@H]2C[C@H]2NC2CCNCC2)cc1
Outline: as §1

Measured: log2 fold change

PRKAG2 (UniProt Q9UGJ0)
inactive: [1] -0.042 | [2] 0.034 | [3] -0.044 | [4] 0.021 | [5] -0.013

PPP4R4 (UniProt Q6NUP7)
inactive: [1] 0.053 | [2] 0.028 | [3] 0.053 | [4] -0.047

PPP6R3 isoform 5 (UniProt Q5H9R7)
inactive: [1] 0.033 | [2] 0.008 | [3] -0.011 | [4] -0.044 | [5] -0.019

PRPF6 (UniProt O94906)
inactive: [1] -0.006 | [2] 0.015 | [3] -0.012 | [4] -0.01 | [5] 0.04

PRMT1 (UniProt Q99873)
inactive: [1] 0.021 | [2] -0.004 | [3] 0.016 | [4] 0.013 | [5] -0.077

PPP6R2 isoform 5 (UniProt O75170)
inactive: [1] 0.024 | [2] 0.058 | [3] -0.005 | [4] -0.003 | [5] -0.032

PRCC (UniProt Q92733)
inactive: [1] 0.022 | [2] -0.026 | [3] -0.037 | [4] 0 | [5] 0.012

PRIMPOL (UniProt Q96LW4)
inactive: [1] 0.009 | [2] 0.009 | [3] -0.015 | [4] -0.024

PPP1R14B (UniProt Q96C90)
inactive: [1] 0.033 | [2] -0.011 | [3] -0.016 | [4] -0.081 | [5] -0.111
